In the supplement of paper PMC12819154, “High-throughput peptide-centric local stability assay extends protein–ligand identification to membrane proteins, tissues and bacteria” (Nature Structural & Molecular Biology, 2025) one finds log2 fold change data, which are given here for 29 targets.

The chains behind the UniProt entries cited, without tags or fusion partners. Where a name states a change or a piece, a line headed by the entry shows the natural chain unless it says otherwise.
UniProt P26038, whole entry: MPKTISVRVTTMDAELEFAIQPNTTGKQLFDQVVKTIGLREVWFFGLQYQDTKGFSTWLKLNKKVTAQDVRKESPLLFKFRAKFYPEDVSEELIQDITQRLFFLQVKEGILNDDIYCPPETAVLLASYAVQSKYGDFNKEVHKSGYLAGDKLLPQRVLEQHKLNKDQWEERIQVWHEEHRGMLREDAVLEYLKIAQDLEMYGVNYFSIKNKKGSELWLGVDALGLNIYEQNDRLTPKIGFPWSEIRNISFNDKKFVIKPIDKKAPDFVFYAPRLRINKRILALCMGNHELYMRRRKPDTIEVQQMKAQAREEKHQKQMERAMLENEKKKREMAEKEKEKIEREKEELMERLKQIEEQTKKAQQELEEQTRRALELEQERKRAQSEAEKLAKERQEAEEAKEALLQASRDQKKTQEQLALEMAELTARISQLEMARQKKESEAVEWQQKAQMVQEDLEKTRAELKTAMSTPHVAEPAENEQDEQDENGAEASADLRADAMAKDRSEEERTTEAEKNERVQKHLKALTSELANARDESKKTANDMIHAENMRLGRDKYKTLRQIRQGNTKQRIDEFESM
UniProt P28347, whole entry: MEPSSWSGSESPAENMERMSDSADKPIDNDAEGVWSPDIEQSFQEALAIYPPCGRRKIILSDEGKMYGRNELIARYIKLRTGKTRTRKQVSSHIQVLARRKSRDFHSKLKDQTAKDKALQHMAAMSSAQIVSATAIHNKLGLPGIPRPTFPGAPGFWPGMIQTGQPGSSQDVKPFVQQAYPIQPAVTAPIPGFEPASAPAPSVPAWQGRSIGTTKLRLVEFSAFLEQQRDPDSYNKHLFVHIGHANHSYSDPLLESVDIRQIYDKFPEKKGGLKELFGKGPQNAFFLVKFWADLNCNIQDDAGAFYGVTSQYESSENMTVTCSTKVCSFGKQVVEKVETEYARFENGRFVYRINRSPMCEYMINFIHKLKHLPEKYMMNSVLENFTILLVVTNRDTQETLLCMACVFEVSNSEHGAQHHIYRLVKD
UniProt P21281, whole entry: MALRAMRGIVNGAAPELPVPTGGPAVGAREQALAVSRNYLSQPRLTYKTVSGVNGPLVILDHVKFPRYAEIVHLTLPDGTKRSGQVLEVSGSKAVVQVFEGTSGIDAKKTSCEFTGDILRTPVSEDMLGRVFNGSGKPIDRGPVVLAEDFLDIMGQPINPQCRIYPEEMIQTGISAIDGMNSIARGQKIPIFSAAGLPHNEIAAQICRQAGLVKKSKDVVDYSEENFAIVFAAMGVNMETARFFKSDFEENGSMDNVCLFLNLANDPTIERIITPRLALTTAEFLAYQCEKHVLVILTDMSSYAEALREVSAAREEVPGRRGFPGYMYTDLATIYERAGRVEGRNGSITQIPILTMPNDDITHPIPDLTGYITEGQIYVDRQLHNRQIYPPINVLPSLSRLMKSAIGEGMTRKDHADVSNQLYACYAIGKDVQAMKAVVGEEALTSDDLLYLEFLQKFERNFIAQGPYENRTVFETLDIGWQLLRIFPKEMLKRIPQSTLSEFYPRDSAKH
UniProt P24864, whole entry: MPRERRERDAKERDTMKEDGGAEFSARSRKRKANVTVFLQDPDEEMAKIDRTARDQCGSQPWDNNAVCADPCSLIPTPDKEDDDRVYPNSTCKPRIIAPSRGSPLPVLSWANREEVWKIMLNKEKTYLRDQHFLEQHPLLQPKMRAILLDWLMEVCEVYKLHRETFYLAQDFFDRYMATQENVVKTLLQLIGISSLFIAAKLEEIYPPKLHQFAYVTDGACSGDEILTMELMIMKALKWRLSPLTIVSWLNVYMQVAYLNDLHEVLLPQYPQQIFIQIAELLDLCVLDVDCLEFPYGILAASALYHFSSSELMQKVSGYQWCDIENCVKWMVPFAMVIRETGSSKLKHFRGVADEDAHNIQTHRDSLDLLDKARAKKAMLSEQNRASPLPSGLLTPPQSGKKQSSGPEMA
UniProt P26374: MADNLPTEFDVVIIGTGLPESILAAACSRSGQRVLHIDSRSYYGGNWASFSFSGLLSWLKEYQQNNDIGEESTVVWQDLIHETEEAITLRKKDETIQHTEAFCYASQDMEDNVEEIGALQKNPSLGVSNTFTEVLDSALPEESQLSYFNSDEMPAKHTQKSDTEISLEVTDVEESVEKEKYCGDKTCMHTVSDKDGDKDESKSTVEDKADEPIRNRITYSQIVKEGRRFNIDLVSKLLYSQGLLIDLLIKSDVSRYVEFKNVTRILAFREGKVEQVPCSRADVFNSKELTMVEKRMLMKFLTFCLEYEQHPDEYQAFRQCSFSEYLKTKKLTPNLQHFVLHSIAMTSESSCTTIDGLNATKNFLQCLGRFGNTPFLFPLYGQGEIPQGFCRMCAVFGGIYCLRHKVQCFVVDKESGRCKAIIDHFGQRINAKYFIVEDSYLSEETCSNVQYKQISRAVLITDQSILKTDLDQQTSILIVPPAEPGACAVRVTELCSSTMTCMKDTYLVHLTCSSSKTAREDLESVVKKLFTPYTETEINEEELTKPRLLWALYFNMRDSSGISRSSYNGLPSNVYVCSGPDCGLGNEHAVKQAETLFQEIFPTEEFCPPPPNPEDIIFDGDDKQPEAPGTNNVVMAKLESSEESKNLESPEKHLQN
UniProt P20073: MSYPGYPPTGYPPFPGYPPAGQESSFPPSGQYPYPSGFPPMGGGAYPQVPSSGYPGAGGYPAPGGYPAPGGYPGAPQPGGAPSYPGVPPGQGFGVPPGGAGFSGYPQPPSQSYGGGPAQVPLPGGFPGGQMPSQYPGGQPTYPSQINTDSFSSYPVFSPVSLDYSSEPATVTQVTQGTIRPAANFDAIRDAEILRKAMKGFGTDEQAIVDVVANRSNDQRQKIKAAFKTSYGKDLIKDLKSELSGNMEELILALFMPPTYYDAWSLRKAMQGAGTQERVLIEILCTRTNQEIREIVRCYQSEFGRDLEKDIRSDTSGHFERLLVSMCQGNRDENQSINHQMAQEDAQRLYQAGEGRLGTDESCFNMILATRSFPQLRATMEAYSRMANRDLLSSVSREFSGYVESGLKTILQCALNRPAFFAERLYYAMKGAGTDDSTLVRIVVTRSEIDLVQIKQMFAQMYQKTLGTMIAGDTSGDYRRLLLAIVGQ
UniProt P28290: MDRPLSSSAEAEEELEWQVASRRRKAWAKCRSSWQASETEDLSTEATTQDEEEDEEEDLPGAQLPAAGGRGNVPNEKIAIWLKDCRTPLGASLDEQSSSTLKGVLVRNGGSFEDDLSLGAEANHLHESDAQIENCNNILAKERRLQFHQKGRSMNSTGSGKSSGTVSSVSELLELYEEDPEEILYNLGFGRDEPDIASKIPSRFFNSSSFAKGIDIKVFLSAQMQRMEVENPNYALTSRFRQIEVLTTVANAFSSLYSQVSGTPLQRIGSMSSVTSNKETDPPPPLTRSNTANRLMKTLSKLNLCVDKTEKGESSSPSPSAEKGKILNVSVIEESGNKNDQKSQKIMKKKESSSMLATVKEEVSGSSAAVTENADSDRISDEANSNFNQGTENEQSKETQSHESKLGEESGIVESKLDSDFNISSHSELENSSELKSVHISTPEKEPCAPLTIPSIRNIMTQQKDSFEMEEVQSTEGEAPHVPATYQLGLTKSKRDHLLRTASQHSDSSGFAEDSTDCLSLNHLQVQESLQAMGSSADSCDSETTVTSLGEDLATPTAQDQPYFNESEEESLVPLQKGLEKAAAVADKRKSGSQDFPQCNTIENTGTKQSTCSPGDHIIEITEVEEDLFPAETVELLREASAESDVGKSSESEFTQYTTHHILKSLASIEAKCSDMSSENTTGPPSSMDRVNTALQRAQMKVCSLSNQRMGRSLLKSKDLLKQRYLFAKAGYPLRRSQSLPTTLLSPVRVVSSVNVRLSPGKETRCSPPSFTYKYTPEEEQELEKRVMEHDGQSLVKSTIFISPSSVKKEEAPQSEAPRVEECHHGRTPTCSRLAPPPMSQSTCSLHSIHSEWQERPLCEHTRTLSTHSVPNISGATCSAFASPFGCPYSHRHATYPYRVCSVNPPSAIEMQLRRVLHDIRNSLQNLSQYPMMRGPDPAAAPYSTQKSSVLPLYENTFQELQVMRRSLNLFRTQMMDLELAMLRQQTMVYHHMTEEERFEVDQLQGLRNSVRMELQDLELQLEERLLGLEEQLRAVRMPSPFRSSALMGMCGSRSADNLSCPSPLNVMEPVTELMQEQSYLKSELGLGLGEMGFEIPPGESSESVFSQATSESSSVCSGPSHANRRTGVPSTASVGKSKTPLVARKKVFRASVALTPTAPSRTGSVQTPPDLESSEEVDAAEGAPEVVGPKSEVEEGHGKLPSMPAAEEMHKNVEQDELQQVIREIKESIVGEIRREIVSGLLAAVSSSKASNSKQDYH
UniProt P23786: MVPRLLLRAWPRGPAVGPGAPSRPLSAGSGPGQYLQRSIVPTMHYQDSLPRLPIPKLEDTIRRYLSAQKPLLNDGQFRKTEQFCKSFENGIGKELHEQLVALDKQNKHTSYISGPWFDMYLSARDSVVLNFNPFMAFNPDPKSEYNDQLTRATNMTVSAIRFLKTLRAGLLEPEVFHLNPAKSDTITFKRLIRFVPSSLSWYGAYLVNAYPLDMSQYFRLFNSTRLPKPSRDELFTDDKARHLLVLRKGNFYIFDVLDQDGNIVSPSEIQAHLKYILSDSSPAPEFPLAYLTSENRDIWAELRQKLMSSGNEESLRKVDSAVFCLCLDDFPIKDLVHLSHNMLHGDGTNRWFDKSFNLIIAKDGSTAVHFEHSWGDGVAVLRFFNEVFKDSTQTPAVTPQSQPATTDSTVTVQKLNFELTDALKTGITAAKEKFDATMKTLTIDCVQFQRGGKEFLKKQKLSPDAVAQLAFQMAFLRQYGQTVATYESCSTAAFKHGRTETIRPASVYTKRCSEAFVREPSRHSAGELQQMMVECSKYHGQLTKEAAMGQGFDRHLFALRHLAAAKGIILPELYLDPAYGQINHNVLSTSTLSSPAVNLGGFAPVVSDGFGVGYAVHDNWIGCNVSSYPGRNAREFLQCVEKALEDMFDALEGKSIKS
UniProt P14373: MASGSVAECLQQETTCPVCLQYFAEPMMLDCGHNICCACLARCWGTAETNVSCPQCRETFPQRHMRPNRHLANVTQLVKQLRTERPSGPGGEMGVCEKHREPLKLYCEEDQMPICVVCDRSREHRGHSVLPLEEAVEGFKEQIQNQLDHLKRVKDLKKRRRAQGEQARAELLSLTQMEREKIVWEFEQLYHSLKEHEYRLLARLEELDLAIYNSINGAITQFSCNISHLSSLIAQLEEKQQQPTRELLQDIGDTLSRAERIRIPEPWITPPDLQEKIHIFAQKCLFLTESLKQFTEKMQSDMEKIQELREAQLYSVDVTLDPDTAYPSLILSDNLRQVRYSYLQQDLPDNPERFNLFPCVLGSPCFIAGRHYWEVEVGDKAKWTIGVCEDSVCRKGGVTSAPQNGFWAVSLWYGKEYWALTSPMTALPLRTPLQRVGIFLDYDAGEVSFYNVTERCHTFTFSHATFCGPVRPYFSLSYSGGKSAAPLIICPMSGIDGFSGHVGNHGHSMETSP
UniProt P20936: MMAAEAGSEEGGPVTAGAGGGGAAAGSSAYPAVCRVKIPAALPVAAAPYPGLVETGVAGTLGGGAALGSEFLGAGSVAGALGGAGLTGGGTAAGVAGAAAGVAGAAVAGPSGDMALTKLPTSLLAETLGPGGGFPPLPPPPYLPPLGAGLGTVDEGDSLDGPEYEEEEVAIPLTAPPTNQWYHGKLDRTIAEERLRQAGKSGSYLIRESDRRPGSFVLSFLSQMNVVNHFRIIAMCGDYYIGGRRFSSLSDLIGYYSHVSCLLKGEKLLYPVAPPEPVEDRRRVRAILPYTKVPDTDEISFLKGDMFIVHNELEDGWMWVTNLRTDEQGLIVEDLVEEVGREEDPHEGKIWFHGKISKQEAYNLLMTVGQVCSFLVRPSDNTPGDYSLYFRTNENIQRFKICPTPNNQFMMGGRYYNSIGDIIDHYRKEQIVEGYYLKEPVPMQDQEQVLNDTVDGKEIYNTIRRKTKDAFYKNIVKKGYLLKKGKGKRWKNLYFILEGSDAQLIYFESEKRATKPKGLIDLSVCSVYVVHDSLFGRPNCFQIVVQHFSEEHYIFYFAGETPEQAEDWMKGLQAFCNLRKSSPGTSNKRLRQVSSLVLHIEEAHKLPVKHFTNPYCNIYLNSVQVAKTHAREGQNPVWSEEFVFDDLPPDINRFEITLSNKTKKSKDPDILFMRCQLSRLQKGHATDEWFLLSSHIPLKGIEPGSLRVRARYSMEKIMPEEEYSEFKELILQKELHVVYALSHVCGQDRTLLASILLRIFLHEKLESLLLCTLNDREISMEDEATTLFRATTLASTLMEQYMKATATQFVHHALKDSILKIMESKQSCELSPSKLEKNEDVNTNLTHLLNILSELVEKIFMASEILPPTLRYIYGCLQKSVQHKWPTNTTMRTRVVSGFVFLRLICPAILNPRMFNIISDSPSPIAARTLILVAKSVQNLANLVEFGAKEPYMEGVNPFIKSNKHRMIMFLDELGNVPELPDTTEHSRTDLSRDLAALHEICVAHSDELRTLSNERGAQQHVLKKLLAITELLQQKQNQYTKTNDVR

This is one part of the list. Small differences around the control level are noise.

Compound in the test: Cc1nc(Nc2ncc(C(=O)Nc3c(C)cccc3Cl)s2)cc(N2CCN(CCO)CC2)n1 [dasatinib]
In words: log2 fold change of tryptic peptide abundance, ligand vs vehicle (limited proteolysis) (log2 ratio); higher = more trypsin-susceptible (destabilized). The note with it: ligand concentration: 5 uM; sample: K562 cleared lysate.
As to “TAL1 (peptide sequence: WRQQNVNGAFAELR, peptide start residue: 198) (UniProt P17542)”, the log2 fold change is -0.284.

As for “PTBP1 (peptide sequence: HQNVQLPR, peptide start residue: 437) (UniProt P26599)”, the log2 fold change was -0.133.

As to “MSN (peptide sequence: DRSEEER, peptide start residue: 502) (UniProt P26038)”, the log2 fold change stood at 0.111.

In the case of “TEAD1 (peptide sequence: ALQHMAAMSSAQIVSATAIHNK, peptide start residue: 118) (UniProt P28347)”, the log2 fold change was -0.133.

For “POLR2E (peptide sequence: QSLVDMAPK, peptide start residue: 116) (UniProt P19388)”, the log2 fold change is -0.232.

Regarding “ATP6V1B2 (peptide sequence: NYLSQPR, peptide start residue: 38) (UniProt P21281)”, the log2 fold change is 0.0841.

For the target “PRKACB (peptide sequence: QIEHTLNEK, peptide start residue: 85) (UniProt P22694)”, the log2 fold change turned out to be 0.839.

On to “CCNE1 (peptide sequence: GVADEDAHNIQTHR, peptide start residue: 351) (UniProt P24864)”, for which the log2 fold change was 0.0366.

For the target “CHML (peptide sequence: QCSFSEYLK, peptide start residue: 319) (UniProt P26374)”, the log2 fold change was 0.11.

For the target “G0S2 (peptide sequence: LRDQEAAVAELQAALER, peptide start residue: 56) (UniProt P27469)”, the log2 fold change amounted to 0.0604.

Take “ANXA7 (peptide sequence: DLLSSVSR, peptide start residue: 390) (UniProt P20073)”: the log2 fold change was -0.109.

For “UniProt P28290 (peptide sequence: SKTPLVAR, peptide start residue: 1138)”, the log2 fold change is -0.435.

Turning to “ZKSCAN1 (peptide sequence: HKIIHTGEKPYECSECGK, peptide start residue: 395) (UniProt P17029)”, the log2 fold change was -1.09.

For the target “ITPKA (peptide sequence: TMVNLPVISPFKK, peptide start residue: 172) (UniProt P23677)”, the log2 fold change was determined as 0.632.

In the case of “TFE3 (peptide sequence: DGVEASAEGPR, peptide start residue: 10) (UniProt P19532)”, the log2 fold change came to 0.284.

With “FBL (peptide sequence: HEGVFICR, peptide start residue: 93) (UniProt P22087)”, the log2 fold change turned out to be 0.195.

In the case of “UniProt P19784 (peptide sequence: EAMEHPYFYPVVK, peptide start residue: 318)”, the log2 fold change is 0.447.

With “CAST (peptide sequence: SQEGKPKEHTEPK, peptide start residue: 52) (UniProt P20810)”, the log2 fold change is -0.889.

Take “DNAJB1 (peptide sequence: KKQDPPVTHDLR, peptide start residue: 158) (UniProt P25685)”: the log2 fold change was -0.145.

On to “CPT2 (peptide sequence: SFNLIIAK, peptide start residue: 355) (UniProt P23786)”, for which the log2 fold change is -0.534.

With “UniProt P21127 (peptide sequence: DSLEEGELRDHR, peptide start residue: 46)”, the log2 fold change was -0.135.

For “TMOD1 (peptide sequence: KFSIVGTR, peptide start residue: 228) (UniProt P28289)”, the log2 fold change is 0.17.

For “TRIM27 (peptide sequence: HYWEVEVGDKAK, peptide start residue: 371) (UniProt P14373)”, the log2 fold change turned out to be 0.737.

“SDHB (peptide sequence: MMATYKEK, peptide start residue: 269) (UniProt P21912)”: the log2 fold change was -0.542.

For the target “PSMA4 (peptide sequence: LSAEKVEIATLTR, peptide start residue: 206) (UniProt P25789)”, the log2 fold change was -0.141.

On to “RASA1 (peptide sequence: SSPGTSNKR, peptide start residue: 581) (UniProt P20936)”, for which the log2 fold change worked out at 0.206.

Turning to “ABCD3 (peptide sequence: LITNSEEIAFYNGNKR, peptide start residue: 272) (UniProt P28288)”, the log2 fold change was determined as 0.0673.

On to “CEBPB (peptide sequence: NLETQHK, peptide start residue: 296) (UniProt P17676)”, for which the log2 fold change was -0.198.

As to “ELK1 (peptide sequence: NKTNMNYDKLSR, peptide start residue: 51) (UniProt P19419)”, the log2 fold change is -0.323.
